According to PMC5101909:
The exact form of at least one protein or probe is not confirmed.

System: thrombin
Experiment: gel, thrombin-induced release of labelled coDNA
Settings: 5'-acrydite of aptaDNA copolymerized with MPC; Nanogels generated in PBS

Sequence: TTTTTTTGCTCCGGTTGGTGTGGTTGG / TTTTTTTTTTTTCCAACCGGAGC [P(MPC/aptaDNA)/fluorescent coDNA duplex]
- binding result: binds
